The match of structure and compound is tentative.
Legend:
HeLa cells (ATCC CCL-2) = assay: Cellular growth inhibition assay, HeLa cells (Example 16); settings: read-out: HeLa (GI50), 72 hours, CellTiter-Glo 2.0
Experimental: (§1) Exemplary compounds were tested for ability to inhibit the proliferation of HEK293 cells (ATCC CRL-1573) and HeLa cells (ATCC CCL-2).
(§2) HEK293 and HeLa cells were cultured in DMEM (Gibco 11995), supplemented with 10% Heat-inactivated FBS (Gibco A38400-01) and 1% Penicillin/Streptomycin (Gibco 15140-122) at 37° C. with 5% CO2 in a humidified tissue culture incubator. Cells were seeded at 500 cells/well in 384-well, Poly-D-lysine-treated blackplates (Perkin Elmer 6007710) in 25 μL media lacking selection for 18-24 hours. Plates were spun at 300 g for 30 seconds and stored in the incubator overnight. After 24 hours, a 25 μL aliquot of compound-containing medium was added in each well, at a final top concentration of 10 μM test compound, with 3-fold dilutions, using DMSO alone as a negative control. Plates were then spun at 300×g for 3 minutes again and cultured at 37° C. with 5% CO2. After 72 hours, cell viability was quantified with CellTiter-Glo 2.0 (Promega). After equilibrating cell plates at room temperature for 30 minutes, 25 μL CellTiter-Glo 2.0 reagent was dispensed into each well. Plates were mixed on a shaker for 2 minutes at 500 rpm, followed by a 10-minute incubation at room temperature. Luminescence readings were measured with an EnVision Plate Reader (Perkin Elmer). Data was normalized to DMSO treated cell wells. A four-parameter non-linear regression curve fit was applied to dose-response data in Prism to determine the half maximal growth inhibitory concentration (GI50) of each compound.

The chains behind the UniProt entries cited, without tags or fusion partners. Residues count along the entry.
UniProt P01116, 1-188 isoform 2 G12C: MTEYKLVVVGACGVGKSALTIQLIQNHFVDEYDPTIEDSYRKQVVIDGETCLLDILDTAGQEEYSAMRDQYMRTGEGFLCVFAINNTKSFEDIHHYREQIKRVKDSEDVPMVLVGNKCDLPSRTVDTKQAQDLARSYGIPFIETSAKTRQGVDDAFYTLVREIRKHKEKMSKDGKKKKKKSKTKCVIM
UniProt P01116, 2-169 isoform 2 G12C limits assumed: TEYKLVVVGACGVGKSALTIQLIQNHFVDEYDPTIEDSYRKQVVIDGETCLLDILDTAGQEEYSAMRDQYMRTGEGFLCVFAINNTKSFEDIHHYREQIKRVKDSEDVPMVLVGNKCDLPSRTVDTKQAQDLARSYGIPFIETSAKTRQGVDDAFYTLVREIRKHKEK

KRAS G12C [1] = molecular target: T1, KRAS G12C (Homo sapiens, UniProt P01116, G12C); assay: KRAS G12C cellular target engagement assay (SW1573 cells); settings: read-out: TE50, 17 hours
Experimental: SW1573 cells (ATCC CRL-2170) were cultured in RPMI 1640 (Gibco A1049101), supplemented with 10% Heat-inactivated FBS (Gibco Cat. #A38400-01) and 1% Penicillin/Streptomycin (Gibco Cat. #15140-122) in an incubator set at 37° C. and 5% CO2. Cells were seeded at 100,000 cells/ml in 1 ml of complete media in a 24-well, tissue culture-treated plate (Falcon 353226) and incubated overnight. Cells were treated with increasing concentrations of compound and let incubate at 37C and 5% CO2 for 17 hours, after which media was aspirated and cells were lysed in 75 uL RIPA Lysis and Extraction Buffer (Thermo 89901) supplemented with 5 mM MgCl2, Protease and Phosphatase inhibitor cocktail (Thermo 1861281), and Universal Nuclease (Thermo 88700). Plates with RIPA were shaken at 4° C. at 600 rpm for 15 min. After shaking samples, they were collected and spun down at 21,000 g for 15 min at 4° C. Following centrifugation, ˜10 ug of lysate was added to Laemmli Sample Buffer (Bio-Rad 1610747) plus 10% beta-mercaptoethanol, boiled for 15 minutes at 65° C. and loaded onto 12% Mini-PROTEAN TGX™ Precast Protein Gels (Bio-Rad). Protein was transferred to a nitrocellulose membrane (Thermo LC2000) using the iBlot 2 Dry Blotting System (Thermo). After transfer, membranes were washed in 1× TBST (Bioland Scientific LLC TBST0103) 3× for 5 min. […]

[2] = test system: HEK293 cells (ATCC CRL-1573); assay: Cellular growth inhibition assay, HEK293 cells (Example 16); settings: read-out: HEK293 (GI50), 72 hours, CellTiter-Glo 2.0
Experimental: as §1
as §2, with “A four-parameter non-linear regression curve fit was applied to dose-response data in Prism to determine the half maximal growth inhibitory concentration (GI50) of each compound.” left out

KRAS G12C [3] = molecular target: T1, KRAS G12C; assay: KRAS G12C nucleotide exchange assay (SOS1-mediated, HTRF); settings: 1 hr pre-incubation
Experimental: KRAS target engagement (IC50 determination) was performed using a KRAS G12C nucleotide exchange assay. Specifically, compounds were tested against KRAS G12C in 10-point concentration IC50 mode with 3-fold serial dilution at a starting concentration of 10 μM. ARS1620 was used as a control.
Briefly, GST-tagged KRAS G12C (amino acids 2-169) was mixed with anti-GST Tb antibody (1.5× solution) and 10 μL was delivered to reaction wells. Compounds were delivered using an acoustic dispenser (Echo, Labcyte) and pre-incubated with protein for 1 hr at RT. KRAS/anti-GST Tb Ab/compound mixture was incubated for 1 hour at room temperature. A 3× solution of SOS1 (amino acids 564-1049) and GTP-DY-647P1 (GTP*) was prepared in reaction buffer. A 5 μL aliquot of SOS1/GTP* solution was added to reaction wells to initiate the exchange reaction. No-SOS1 reaction or max compound concentration was used as blank. The final concentrations of KRAS G12C, SOS1, and GTP* were 30 nM, 20 nM, and 0.15 μM, respectively. SOS1 mediated exchange of GDP to GTP-DY-647P was measured using HTRF (Ex/Em=(320-75/665-7.5; 615-8.5)) using an Envision Plate Reader (Perkin Elmer). IC50 determination was performed using a Sigmoidal dose response (variable slope) equation.

| Compound | GI50 (HeLa cells (ATCC CCL-2)) [nM] | EC50 (KRAS G12C [1]) [nM] | GI50 [2] [nM] | IC50 (KRAS G12C [3]) [nM] |
| --- | --- | --- | --- | --- |
| C=C(COC(=O)N1CCN(c2nc(NCc3nc4cc(C)ccc4[nH]3)n3ncc(Br)c3n2)CC1)C(=O)N1CCN(c2nc(OC[C@@H]3CCCN3C)nc3c2CCN(c2cccc4cccc(Cl)c24)C3)C[C@@H]1CC#N | < 500 | 250 to 5000 | < 500 | < 100 |
| C=C(COC(=O)NCCc1cc(Cl)cc(NC(=O)NCc2ccc3c(c2)CN(C2CCC(=O)NC2=O)C3=O)c1)C(=O)N1CCN(c2nc(OC[C@@H]3CCCN3C)nc3c2CCN(c2cccc4cccc(Cl)c24)C3)C[C@@H]1CC#N (some centres unmarked) | > 10000 | 250 to 5000 | 1500 to 10000 | < 100 |
